Experimental data taken from patent US20200239888.
For some assays here: Protein sequences can lack the tags named with them. For some assays here: The exact form of at least one protein or probe is not confirmed. For some assays here: Where cells or extracts were used, other partners may take part.

Columns and labels:
[1] = biological target: T1, FUS(1-526)[P525L]-NLUC-FLAG (UniProt P35637); test: competition with a labelled probe; conditions: competitive nanoBRET vs AF594-JB39; reported as KD (50% dissociation of BRET pair); text NLUC-FLAG; protein translated in vitro; protein details: C-terminal NLUC-FLAG, PURExpress, bead-bound; single-stranded DNA
T1 sequence (looked up): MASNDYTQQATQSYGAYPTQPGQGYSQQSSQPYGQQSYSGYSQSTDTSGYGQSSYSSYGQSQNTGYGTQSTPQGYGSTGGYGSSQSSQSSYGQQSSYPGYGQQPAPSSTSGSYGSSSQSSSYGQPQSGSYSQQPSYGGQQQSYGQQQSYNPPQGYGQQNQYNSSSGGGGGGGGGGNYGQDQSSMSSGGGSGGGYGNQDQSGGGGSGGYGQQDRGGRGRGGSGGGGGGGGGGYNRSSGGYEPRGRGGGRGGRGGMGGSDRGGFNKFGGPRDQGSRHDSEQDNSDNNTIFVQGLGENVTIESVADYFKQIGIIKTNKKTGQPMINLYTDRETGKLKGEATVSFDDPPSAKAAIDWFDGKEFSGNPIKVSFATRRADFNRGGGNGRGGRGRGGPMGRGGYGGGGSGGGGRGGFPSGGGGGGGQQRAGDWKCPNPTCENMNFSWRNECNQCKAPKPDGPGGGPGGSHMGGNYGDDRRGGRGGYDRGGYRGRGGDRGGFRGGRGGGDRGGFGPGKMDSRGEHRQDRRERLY

PSF / p54nrb heterodimer = test: competition with a labelled probe; conditions: 2'-F at 1-5 and 16-20, DNA at 6-15; full PS; 5mC at C8, C9, C11; disruption of PSF-p54nrb BRET in HeLa lysate; reported as KD (50% dissociation); protein in a lysate after overexpression

| Sequence | IC50 [1] [nM] | IC50 (PSF / p54nrb heterodimer) [nM] |
| --- | --- | --- |
| CTGCTAGCCTCTGGATTTGA [JB40 (DNA, phosphodiester)] | > 1000 |  |
| CUGCUAGCCTCTGGAUUUGA [404130 (2'-F 5-10-5 gapmer)] |  | 0.66 |
